Laboratory results: publication PMC10906868
These are yes or no findings as the source states them, for the method shown. Binding seen in cells or lysates may run through a third protein. For part of these data: Sequences can lack the tags named with a protein.

By UniProt entry, the sequences of proteins in these tests, tags left out.
UniProt P60122: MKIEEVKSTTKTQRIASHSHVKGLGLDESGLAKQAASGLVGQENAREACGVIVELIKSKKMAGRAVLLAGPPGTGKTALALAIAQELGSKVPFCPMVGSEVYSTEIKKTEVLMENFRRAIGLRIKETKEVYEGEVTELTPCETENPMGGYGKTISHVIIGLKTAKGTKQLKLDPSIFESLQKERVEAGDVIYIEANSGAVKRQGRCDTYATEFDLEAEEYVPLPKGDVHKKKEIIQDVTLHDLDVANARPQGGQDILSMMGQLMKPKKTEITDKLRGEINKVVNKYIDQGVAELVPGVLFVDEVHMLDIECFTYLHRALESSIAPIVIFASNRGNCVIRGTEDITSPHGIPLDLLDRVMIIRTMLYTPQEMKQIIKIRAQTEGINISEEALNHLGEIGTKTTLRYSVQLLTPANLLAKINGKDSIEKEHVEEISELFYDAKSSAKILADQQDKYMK
UniProt Q6ZQF0: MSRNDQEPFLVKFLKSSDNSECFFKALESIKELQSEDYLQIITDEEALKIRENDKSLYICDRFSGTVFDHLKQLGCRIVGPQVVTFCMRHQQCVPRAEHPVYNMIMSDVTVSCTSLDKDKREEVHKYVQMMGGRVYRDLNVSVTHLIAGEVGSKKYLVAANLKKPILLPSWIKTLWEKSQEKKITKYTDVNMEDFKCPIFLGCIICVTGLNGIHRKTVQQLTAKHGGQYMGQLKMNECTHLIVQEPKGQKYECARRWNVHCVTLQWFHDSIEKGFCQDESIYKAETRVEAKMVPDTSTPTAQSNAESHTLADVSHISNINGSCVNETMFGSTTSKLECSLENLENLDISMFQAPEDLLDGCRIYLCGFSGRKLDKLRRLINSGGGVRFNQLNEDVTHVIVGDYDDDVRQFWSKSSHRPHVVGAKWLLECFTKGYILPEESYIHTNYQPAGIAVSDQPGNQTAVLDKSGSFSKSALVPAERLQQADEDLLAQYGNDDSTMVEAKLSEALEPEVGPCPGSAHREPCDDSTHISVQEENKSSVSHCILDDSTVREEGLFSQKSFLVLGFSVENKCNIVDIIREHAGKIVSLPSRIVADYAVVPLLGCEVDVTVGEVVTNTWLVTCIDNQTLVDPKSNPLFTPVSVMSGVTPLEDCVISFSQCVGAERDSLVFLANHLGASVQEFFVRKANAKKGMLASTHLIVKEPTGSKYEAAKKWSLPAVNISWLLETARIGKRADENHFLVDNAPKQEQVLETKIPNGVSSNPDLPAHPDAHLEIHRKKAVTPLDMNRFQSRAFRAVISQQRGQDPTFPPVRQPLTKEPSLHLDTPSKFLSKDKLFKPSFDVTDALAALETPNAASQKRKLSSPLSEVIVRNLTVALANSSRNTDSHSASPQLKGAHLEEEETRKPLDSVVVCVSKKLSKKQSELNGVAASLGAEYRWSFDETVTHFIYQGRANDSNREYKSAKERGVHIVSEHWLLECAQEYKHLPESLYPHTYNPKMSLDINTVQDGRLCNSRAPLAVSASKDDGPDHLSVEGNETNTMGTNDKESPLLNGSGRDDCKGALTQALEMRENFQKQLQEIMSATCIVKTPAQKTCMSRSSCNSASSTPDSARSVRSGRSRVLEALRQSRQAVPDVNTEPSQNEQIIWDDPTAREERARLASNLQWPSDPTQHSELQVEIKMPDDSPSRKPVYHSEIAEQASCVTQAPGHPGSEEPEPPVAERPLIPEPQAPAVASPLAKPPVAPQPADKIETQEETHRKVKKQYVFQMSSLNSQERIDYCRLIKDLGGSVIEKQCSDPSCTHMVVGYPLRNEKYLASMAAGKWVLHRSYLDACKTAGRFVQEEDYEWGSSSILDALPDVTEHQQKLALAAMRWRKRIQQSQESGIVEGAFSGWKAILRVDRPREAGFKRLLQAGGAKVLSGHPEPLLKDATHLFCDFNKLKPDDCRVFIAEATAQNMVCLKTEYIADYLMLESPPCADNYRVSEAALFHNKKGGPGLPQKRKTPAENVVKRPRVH
UniProt Q9D5P4: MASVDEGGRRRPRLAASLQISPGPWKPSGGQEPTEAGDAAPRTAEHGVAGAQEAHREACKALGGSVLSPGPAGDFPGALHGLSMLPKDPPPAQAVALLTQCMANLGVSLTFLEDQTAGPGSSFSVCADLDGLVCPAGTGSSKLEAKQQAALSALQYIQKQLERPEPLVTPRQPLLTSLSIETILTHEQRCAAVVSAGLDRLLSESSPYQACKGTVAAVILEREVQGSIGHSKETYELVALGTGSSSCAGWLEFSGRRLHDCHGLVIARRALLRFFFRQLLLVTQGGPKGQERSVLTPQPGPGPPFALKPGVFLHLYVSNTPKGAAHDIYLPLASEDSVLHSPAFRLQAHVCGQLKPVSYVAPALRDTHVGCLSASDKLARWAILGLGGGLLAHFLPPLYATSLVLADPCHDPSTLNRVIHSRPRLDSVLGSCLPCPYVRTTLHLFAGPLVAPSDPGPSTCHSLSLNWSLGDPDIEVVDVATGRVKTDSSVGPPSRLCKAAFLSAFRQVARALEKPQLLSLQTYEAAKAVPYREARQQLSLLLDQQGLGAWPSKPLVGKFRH

T1: FANCJ (BRCA1 Interacting Protein 1, BRIP1), endogenous wild-type protein in mouse testis (mouse (endogenous in testis)) (UniProt Q5SXJ3)
T1 sequence: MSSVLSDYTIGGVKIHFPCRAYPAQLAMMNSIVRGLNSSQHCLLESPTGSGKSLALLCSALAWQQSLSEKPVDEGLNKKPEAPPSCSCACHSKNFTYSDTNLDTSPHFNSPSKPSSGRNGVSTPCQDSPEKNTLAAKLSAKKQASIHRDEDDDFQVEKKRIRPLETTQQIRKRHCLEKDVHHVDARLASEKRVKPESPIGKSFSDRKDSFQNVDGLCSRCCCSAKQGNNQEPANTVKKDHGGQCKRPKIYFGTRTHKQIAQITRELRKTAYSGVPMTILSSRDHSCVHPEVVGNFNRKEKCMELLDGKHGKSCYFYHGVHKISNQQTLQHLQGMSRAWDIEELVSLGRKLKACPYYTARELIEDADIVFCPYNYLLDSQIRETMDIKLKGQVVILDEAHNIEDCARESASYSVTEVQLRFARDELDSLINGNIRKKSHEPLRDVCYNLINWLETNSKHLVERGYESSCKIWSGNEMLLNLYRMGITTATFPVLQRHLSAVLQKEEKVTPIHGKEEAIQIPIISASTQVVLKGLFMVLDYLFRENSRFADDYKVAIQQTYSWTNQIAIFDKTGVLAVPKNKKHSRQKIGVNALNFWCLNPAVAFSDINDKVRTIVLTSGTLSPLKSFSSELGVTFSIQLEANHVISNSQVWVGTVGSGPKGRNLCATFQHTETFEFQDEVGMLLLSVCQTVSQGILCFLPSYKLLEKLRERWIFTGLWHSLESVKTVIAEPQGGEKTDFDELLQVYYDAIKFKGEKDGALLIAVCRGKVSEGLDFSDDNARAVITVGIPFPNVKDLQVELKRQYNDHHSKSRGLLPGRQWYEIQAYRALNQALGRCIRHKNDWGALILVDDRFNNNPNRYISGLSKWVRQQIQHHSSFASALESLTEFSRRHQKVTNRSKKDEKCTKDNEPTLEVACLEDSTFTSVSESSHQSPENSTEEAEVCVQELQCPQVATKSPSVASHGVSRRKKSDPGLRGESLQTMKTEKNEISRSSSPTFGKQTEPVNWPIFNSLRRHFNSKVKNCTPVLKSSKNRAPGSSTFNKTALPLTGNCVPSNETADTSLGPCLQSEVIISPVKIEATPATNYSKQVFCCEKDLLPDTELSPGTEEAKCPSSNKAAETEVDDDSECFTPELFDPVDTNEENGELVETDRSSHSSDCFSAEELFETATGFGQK

T2: FANCJ-HA (endogenous FANCJ with C-terminal 6xHis-HA epitope tag, Fancj^HA allele) (mouse (endogenous in testis)) (UniProt Q5SXJ3)
T2 sequence: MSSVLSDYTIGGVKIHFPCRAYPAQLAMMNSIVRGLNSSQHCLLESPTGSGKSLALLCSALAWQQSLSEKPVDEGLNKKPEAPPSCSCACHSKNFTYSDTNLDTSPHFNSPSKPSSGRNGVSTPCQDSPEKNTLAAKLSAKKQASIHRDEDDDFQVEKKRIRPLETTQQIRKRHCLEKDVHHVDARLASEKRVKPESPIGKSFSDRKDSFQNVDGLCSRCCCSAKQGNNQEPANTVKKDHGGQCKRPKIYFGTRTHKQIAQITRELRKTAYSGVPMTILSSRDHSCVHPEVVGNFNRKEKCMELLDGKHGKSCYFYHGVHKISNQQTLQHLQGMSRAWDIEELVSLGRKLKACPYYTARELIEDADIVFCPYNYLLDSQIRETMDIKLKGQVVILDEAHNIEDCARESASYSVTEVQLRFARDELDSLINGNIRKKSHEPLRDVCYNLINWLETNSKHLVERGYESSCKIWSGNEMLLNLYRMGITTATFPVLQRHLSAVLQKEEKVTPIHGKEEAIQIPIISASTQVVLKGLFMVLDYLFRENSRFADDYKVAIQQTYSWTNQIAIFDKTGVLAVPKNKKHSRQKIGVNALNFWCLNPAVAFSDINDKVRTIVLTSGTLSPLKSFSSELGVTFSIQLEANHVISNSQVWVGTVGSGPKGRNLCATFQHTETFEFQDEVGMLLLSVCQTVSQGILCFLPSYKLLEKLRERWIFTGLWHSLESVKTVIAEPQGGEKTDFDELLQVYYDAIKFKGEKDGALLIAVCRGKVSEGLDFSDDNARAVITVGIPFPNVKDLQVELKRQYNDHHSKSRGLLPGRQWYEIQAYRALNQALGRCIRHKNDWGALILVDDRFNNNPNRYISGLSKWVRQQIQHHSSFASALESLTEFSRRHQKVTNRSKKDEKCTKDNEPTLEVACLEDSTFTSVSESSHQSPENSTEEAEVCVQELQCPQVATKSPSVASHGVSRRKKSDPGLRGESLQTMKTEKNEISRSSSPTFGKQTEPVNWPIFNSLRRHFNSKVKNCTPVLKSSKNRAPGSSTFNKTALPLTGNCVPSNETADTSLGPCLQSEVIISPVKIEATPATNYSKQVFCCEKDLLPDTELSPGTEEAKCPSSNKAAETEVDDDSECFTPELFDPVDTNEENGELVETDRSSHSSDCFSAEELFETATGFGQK


What was measured:
[1] = target: T1, FANCJ (BRCA1 Interacting Protein 1, BRIP1), endogenous wild-type protein in mouse testis (mouse (endogenous in testis)); test: co-IP; anti-FANCJ (custom rabbit polyclonal, Dynabeads protein A) immunoprecipitation from mouse whole testis lysate (Fancj+/+; Fancj-/- and IgG as controls), Tris lysis buffer with 0.2% NP-40, 150 mM NaCl, overnight at 4°C, western blot
[2] = target: T2, FANCJ-HA (endogenous FANCJ with C-terminal 6xHis-HA epitope tag, Fancj^HA allele) (mouse (endogenous in testis)); test: co-IP; anti-HA (magnetic beads) immunoprecipitation from Fancj^HA/HA whole testis lysate (Fancj+/+ as control), Tris lysis buffer with 0.2% NP-40, 150 mM NaCl, overnight at 4°C, western blot

| binding [1] | binding [2] | Molecule |
| --- | --- | --- |
| no binding | no binding | RUVBL1 (from UniProt P60122 1-456) |
|  | no binding | TOPBP1 (from UniProt Q6ZQF0 1-1515) |
| no binding | no binding | ADAD2 (from UniProt Q9D5P4 1-561) |
| no binding | no binding | USP4 (protein, UniProt P35123 1-962) MAEGRGSRERPDVETQKTELGALMGTTLQRGAQWYLIDSRWFKQWKKYVGFDSWDMYNVGEHNLFPGPIDNSGLFSDPESQTLKEHLIDELDYVLVPAEAWNKLLNWYGCVEGQQPIVRKVVEHGLFVKHCKVEVYLLELKLCENSDPTNVLSCHFSKADTIATIEKEMRKLFNIPAERETRLWNKYMSNTYEQLSKLDNTIQDAGLYQGQVLVIEPQNEDGTWPRQSLQSKSSTAPSRNFTTSSKPSASPYCSVSASLIANGDSTNSSGMHSSGVSRGGSGFSASYNCQEPPSPHIQPGLCGLGNLGNTCFMNSALQCLSNTAPLTEYFLKDEYEAEINRDNPLGMKGEIAEAYAELIKQMWSGRDTHVAPRMFKTQVGRFAPQFSGYQQQDSQELLAFILDGLHEDLNRVKKKPYLEPKDANGRPDAVVAKEAWENHRLRNDSVIVDTFHGLFKSTLVCPECAKVSVTFDPFCYLTLPLPLKKDRIMEVFLVPADPQCRPIQYRVTVPLMGAISDLCEALSKLSGIAAENMVVTDVYNHRFHKIFQMDEGLSHITPRDDIFVYEVCNTSMDGSECITLPVYFREKKSRPSSASSGAVLYGQPLLVSVPKHKLTLESLYQAVCDRISRYIKQPLPDEFLSSPLEPGACNGSRSSYEGDEEEEMDHQEEGKEQLSEVEGSGEDDQGDDHSESAQKVKGQPRHKRLFTFSLVNSCGTADINSLATDGKLLKLNSRSTLAIDWDSETRSLYFDEQESEACEKHLSMSQPQKKKKAAVALRECIELFTTMETLGEHDPWYCPTCKKHQQATKKFDLWSLPKILVVHLKRFSYNRYWRDKLDTVVEFPVRALNMSEFVCDRSARPYVYDLIAVSNHYGAMGVGHYTAYAKNRLNGKWYYFDDSSVSLASEDQIVTKAAYVLFYQRRDDECSSTSSLGSFPGSDGGVKLSSSHQGMGDEEAYNMDTN |
| no binding | no binding | ATRIP (protein, UniProt Q8BMG1 1-785) MAGTPAPNSHRKQSGGLEPFPGLSRSIENPPSKRARSFSETTVPDPEDPFGEHAEFTADDLEELDILASQALSQCPVAPRNLSSAHKVRRLDGLPNSPIRKSREDIPVKDNFELEVLQIQYKELKEKLKAMEEEILIKNGEIKILRDSLRQTESVLEEQKRSHFLLEQEKTQALSEKEKEFSRKLQSLQSELQFKDAEMNELRTKSQSNGRTNKPAAPSVSHVSPRKGSSVVLKSEACSPHVGKTTFPTKESFSANTPLFHPCQTEAGHRFLVGQEVSDNKNHSLGGSLMKQDVQQRILADGWMQRKDAQGSILINLLLKQPLVPGSSLGLCHLLSSCPEVPTGTLLQPPGLSTLPGTSGLRTISSSDGPFSPSALREAQNLAFTGLNLVARTESSHDGDMAGRRVFPLHQLPGAVHLLPLVQFFVGLHCQALQDLAPAKKSGVPGDSATHTSCMSSGVEASPEDSIHGLESFSVASLSVLQNLVCHSGAVVCLLLSGMGTEAAAREGNLVQTCADTTSASREDAHDQDQHPLLKMLLQLMASSSAASGHFQASVLGLCLKVLVKLAENASSDLLPRFSCVFPVLPQCLGSALPLPCVLLAVELLSVLLDHDSLAWQLCSHPEGCLLLRLYMYITSRPDRTASETQWLQLEQEVVWLLAKLSVQSPAPAGIGSDCHCNVEAVRALTVMLHRQWLTVRRAGGPRTHQQKQTIRCLRDTVLLLHSLSQKDKLFTVHCVEVLHQYDQVMPGVSMLIRALPDVTDCEEAALDDLCAAETDLEDSEMDCN |
